“Also recorded” adds a separate entry of the source. Part of at least one peptide drawing is inferred or uncertain, most often the ends.
Assays:
[1] = tested on: Adult male Sprague-Dawley rats; assay: Tail-flick analgesic testing after intrathecal administration; format: in vivo, rat; details: for changes in tail-flick latencies / analgesic response: peptide alone, 10 pmol, intrathecal
[2] = large microgram doses of substance P into the lumbar spinal subarachnoid; cited from earlier work
[3] = small nanogram doses at supraspinal or brainstem sites; cited from earlier work

SMILES | change in MPE (hyperalgesic effect) ([1]; 1000 pmol SP alone, 15 min after administration) [% MPE] | effective range of SP dose-response curve (bell-shaped) ([1]; coinjected with 0.1 ug MS) [pmol] | changes in tail-flick latencies / analgesic response [1] | effect on sensitivity to pain [2] | analgesic response [3]
CSCC[C@H](NC(=O)[C@H](CC(C)C)NC(=O)CNC(=O)[C@H](Cc1ccccc1)NC(=O)[C@H](Cc1ccccc1)NC(=O)[C@H](CCC(N)=O)NC(=O)[C@H](CCC(N)=O)NC(=O)[C@@H]1CCCN1C(=O)[C@H](CCCCN)NC(=O)[C@@H]1CCCN1C(=O)[C@@H](N)CCCNC(=N)N)C(N)=O [SP, Substance P] | -25 | 1 to 1000 | insignificant changes in tail-flick latencies; also recorded: no measurable analgesic response | hyperalgesia | modest analgesic response
CSCC[C@H](NC(=O)[C@H](CC(C)C)NC(=O)CNC(=O)[C@H](Cc1ccccc1)NC(=O)[C@H](Cc1ccccc1)NC(=O)[C@H](CCC(N)=O)NC(=O)[C@H](CCC(N)=O)NC(=O)[C@@H]1CCCN1C(=O)[C@H](CCCCN)NC(=O)[C@@H]1CCCN1C(=O)[C@@H](N)CCCNC(=N)N)C(=O)NCC(=O)O [SP-G, Substance P-Glycine] | – | – | no measurable analgesic response | – | –

Reference: patent US5891842A, “Methodology for eliciting an analgesic response in a living subject” (priority 1996, dated 1999)
